PubChem BioAssay AID1259308 – NCATS | 2017
Shown is an unselected part of about 59,000 reagents. About 1,510 of them (2.6%) count as active. 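Calls use total luciferase alone and ignore viability, so some active siRNAs may act by altering cell number.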 A number with no mark means an inactive call. The numbers tell different reagents against one gene apart. Not all columns of the deposit are shown.

- Purpose: 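Knock-downs that increase output of a recombinant reporter protein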 (primary screen)
- Cell system: human HEK293 embryonic kidney cells stably expressing firefly luciferase (HEK-CMV-Luc2-Hygro)
- Reagents: single siRNA against human genes, 0.8 pmol siRNA per well
- Time to read-out: 72 h
- Detection: 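Luciferase light (ONE-Glo) measured on one replicate plate set and viability (CellTiter-Glo) on the other, scaled to a negative control siRNA, with robust z-scores and luciferase per cell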
- Scale: total luciferase, z-score: higher = more reporter protein produced
- Rule for the call: 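Active when the median/MAD z-score for overall luciferase is greater than 3; a gene was taken forward for validation with new siRNAs if at least two of its three siRNAs passed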
- Calls: active = raised luciferase; inactive = no rise

| target gene | reagent no. | total luciferase, z-score |
| --- | --- | --- |
| TBCE (tubulin folding cofactor E) | 1 | 1.35 |
| TBCE (tubulin folding cofactor E) | 2 | -0.774 |
| TBCE (tubulin folding cofactor E) | 3 | -2.35 |
| RPS17 (ribosomal protein S17) | 1 | -0.186 |
| RPS17 (ribosomal protein S17) | 2 | -2.18 |
| RPS17 (ribosomal protein S17) | 3 | -2.12 |
| TWSG1 (twisted gastrulation BMP signaling modulator 1) | 1 | -1.9 |
| TWSG1 (twisted gastrulation BMP signaling modulator 1) | 2 | -0.192 |
| TWSG1 (twisted gastrulation BMP signaling modulator 1) | 3 | 0.361 |
| SERTAD4-AS1 (SERTAD4 antisense RNA 1) | 1 | -0.00752 |
| SERTAD4-AS1 (SERTAD4 antisense RNA 1) | 2 | -1.42 |
| SERTAD4-AS1 (SERTAD4 antisense RNA 1) | 3 | 0.524 |
| LINC01530 (long independently transcribed non-coding RNA 1530) | 1 | 1.69 |
| LINC01530 (long independently transcribed non-coding RNA 1530) | 2 | 3.85 (active) |
| LINC01530 (long independently transcribed non-coding RNA 1530) | 3 | 1.22 |

Next part; the last 4 above are carried over.
| target gene | reagent no. | total luciferase, z-score |
| --- | --- | --- |
| SERTAD4-AS1 (SERTAD4 antisense RNA 1) | 3 | 0.524 |
| LINC01530 (long independently transcribed non-coding RNA 1530) | 1 | 1.69 |
| LINC01530 (long independently transcribed non-coding RNA 1530) | 2 | 3.85 (active) |
| LINC01530 (long independently transcribed non-coding RNA 1530) | 3 | 1.22 |
| PPARG (peroxisome proliferator activated receptor gamma) | 1 | 0.0868 |
| PPARG (peroxisome proliferator activated receptor gamma) | 2 | 0.41 |
| PPARG (peroxisome proliferator activated receptor gamma) | 3 | -1.17 |
| ZNF740 (zinc finger protein 740) | 1 | -0.0791 |
| ZNF740 (zinc finger protein 740) | 2 | -0.437 |
| ZNF740 (zinc finger protein 740) | 3 | 2.27 |
| CLEC4F (C-type lectin domain family 4 member F) | 1 | 0.364 |
| CLEC4F (C-type lectin domain family 4 member F) | 2 | -1.36 |
| CLEC4F (C-type lectin domain family 4 member F) | 3 | -0.951 |
| RNF25 (ring finger protein 25) | 1 | -1.35 |
| RNF25 (ring finger protein 25) | 2 | 1.43 |
| RNF25 (ring finger protein 25) | 3 | 0.795 |
| DSC1 (desmocollin 1) | 1 | -0.133 |
| DSC1 (desmocollin 1) | 2 | 0.45 |
| DSC1 (desmocollin 1) | 3 | -0.281 |
| KRTAP5-2 (keratin associated protein 5-2) | 1 | 1.23 |
| KRTAP5-2 (keratin associated protein 5-2) | 2 | -0.0483 |
| KRTAP5-2 (keratin associated protein 5-2) | 3 | -0.801 |
| SRD5A3 (steroid 5 alpha-reductase 3) | 1 | 1.66 |
| SRD5A3 (steroid 5 alpha-reductase 3) | 2 | 0.162 |
| SRD5A3 (steroid 5 alpha-reductase 3) | 3 | -2.55 |
| KATNAL1 (katanin catalytic subunit A1 like 1) | 1 | -0.739 |
| KATNAL1 (katanin catalytic subunit A1 like 1) | 2 | -0.259 |
| KATNAL1 (katanin catalytic subunit A1 like 1) | 3 | -1.31 |
